This is an account of results in publication PMC11532242.

No constants are given. Whether binding was seen depends on the method and setting. Binding seen in cells or lysates may run through a third protein. Some results given as binding are weak or reduced against the parent protein; the word gives no strength.

For this assay, the target named is T1, FOXM1 (human (endogenous in U-2OS and 143B)) (UniProt Q08050).
T1 sequence: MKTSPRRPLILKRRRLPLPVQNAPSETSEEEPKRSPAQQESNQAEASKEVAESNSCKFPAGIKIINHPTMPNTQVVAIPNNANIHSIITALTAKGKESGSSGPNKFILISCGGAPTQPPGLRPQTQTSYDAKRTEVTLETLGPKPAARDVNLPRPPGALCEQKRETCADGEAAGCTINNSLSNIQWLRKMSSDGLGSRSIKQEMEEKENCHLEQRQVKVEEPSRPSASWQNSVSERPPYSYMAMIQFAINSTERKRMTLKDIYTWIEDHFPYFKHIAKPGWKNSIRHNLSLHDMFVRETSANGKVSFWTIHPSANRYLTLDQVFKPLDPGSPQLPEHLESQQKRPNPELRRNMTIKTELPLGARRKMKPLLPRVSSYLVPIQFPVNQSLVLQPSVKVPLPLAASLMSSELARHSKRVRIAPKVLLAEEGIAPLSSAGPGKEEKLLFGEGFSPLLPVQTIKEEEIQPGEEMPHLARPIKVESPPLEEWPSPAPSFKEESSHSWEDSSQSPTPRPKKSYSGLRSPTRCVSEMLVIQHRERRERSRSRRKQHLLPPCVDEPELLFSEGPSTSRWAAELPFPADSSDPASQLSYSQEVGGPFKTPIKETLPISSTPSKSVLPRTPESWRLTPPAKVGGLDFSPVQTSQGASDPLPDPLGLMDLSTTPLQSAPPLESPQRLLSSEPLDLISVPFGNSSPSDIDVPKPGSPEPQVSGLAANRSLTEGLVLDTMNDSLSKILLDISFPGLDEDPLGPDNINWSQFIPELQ
The assay can be described thus: co-IP; total protein from U-2OS and 143B cells in RIPA lysis buffer (Strong); precipitated with anti-FOXM1 antibody and Protein A/G magnetic beads; western blot; IgG as negative control.

B1: hyaluronan-mediated motility receptor (HMMR) (protein, UniProt O75330 1-724)
chain: MSFPKAPLKRFNDPSGCAPSPGAYDVKTLEVLKGPVSFQKSQRFKQQKESKQNLNVDKDTTLPASARKVKSSESKESQKNDKDLKILEKEIRVLLQERGAQDRRIQDLETELEKMEARLNAALREKTSLSANNATLEKQLIELTRTNELLKSKFSENGNQKNLRILSLELMKLRNKRETKMRGMMAKQEGMEMKLQVTQRSLEESQGKIAQLEGKLVSIEKEKIDEKSETEKLLEYIEEISCASDQVEKYKLDIAQLEENLKEKNDEILSLKQSLEENIVILSKQVEDLNVKCQLLEKEKEDHVNRNREHNENLNAEMQNLKQKFILEQQEREKLQQKELQIDSLLQQEKELSSSLHQKLCSFQEEMVKEKNLFEEELKQTLDELDKLQQKEEQAERLVKQLEEEAKSRAEELKLLEEKLKGKEAELEKSSAAHTQATLLLQEKYDSMVQSLEDVTAQFESYKALTASEIEDLKLENSSLQEKAAKAGKNAEDVQHQILATESSNQEYVRMLLDLQTKSALKETEIKEITVSFLQKITDLQNQLKQQEEDFRKQLEDEEGRKAEKENTTAELTEEINKWRLLYEELYNKTKPFQLQLDAFEVEKQALLNEHGAAQEQLNKIRDSYAKLLGHQNLKQKIKHVVKLKDENSQLKSEVSKLRCQLAKKKQSETKLQEELNKVLGIKHFDPSKAFHHESKENFALKTPLKEGNTNCYRAPMECQESWK
On to B1, for which the binding result is reported as “binds”.
